Numbering of substitutions follows the chain as printed. Results are given in words; binding and its absence hold for the method and conditions named. Binding can be weak; no strength is given.
B1: MAdCAM Antibody Table 2 Clone 6 (antibody, human IgG1, V domains shown)
VH: EVQLLESGGGLVQPGGSLRLSCAASGFTFNNYAFHWVRQAPGKGLEWVSRINSYGTSTTYADSVKGRFTISRDNSKNTLYLQMNSLRAEDTAVYYCAREGPVAGYWYFDLWGQGTLVTVSS
VL: DIQMTQSPSSLSASVGDRVTITCRASQIIGTNLAWYQQKPGKAPKLLIYGASSLQSGVPSRFSGSGSGTDFTLTISSLQPEDFATYYCQQSYRLPFTFGQGTKVEIK
B2: MAdCAM Antibody Table 2 Clone 30 (antibody, human IgG1, V domains shown)
VH: EVQLLESGGGLVQPGGSLRLSCAASGFTFSSYAMHWVRQAPGKGLEWVSGISGSGGSAYYADSVKGRFTISRDNSKNTLYLQMNSLRAEDTAVYYCATSQAPVDYYYYGMDVWGQGTTVTVSS
VL: B1 VL with I28S, G30S, T31S, N32W, G50A, S53N, S56R, R93S, L94I, F96I
B3: MAdCAM Antibody Table 2 Clone 55 (antibody, human IgG1, V domains shown)
VH: EVQLLESGGGLVQPGGSLRLSCAASGFTFDDFAMHWVRQAPGKGLEWVSGISGNGDSRYYADSVKGRFTISRDNSKNTLYLQMNSLRAEDTAVYYCARDASYGGNYGMDVWGQGTTVTVSS
VL: DIQMTQSPSSLSASVGDRVTITCQASQDIRNYLNWYQQKPGKAPKLLIYKASTLESGVPSRFSGSGSGTDFTLTISSLQPEDFATYYCQQANSFPLTFGPGTKVDIK
B4: MAdCAM Antibody Table 2 Clone 60 (antibody, human IgG1, V domains shown)
VH: EVQLLESGGGLVQPGGSLRLSCAASGFTFSDHGMHWVRQAPGKGLEWVSVIYGGESTYYADSVKGRFTISRDNSKNTLYLQMNSLRAEDTAVYYCARDPAVAGGGIFDYWGQGTLVTVSS
VL: DIQMTQSPSSLSASVGDRVTITCRASQGISNYLAWYQQKPGKAPKLLIYDASNLETGVPSRFSGSGSGTDFTLTISSLQPEDFATYYCQQSYSTCYTFGQGTKLEIK
B5: MAdCAM Antibody Table 2 Clone 63 (antibody, human IgG1, V domains shown)
VH: EVQLLESGGGLVQPGGSLRLSCAASGFTFNNYGMNWVRQAPGKGLEWVSRINSDGSSTSYADSVKGRFTISRDNSKNTLYLQMNSLRAEDTAVYYCARGAYYYYYMDVWGQGTLVTVSS
VL: EIVMTQSPATLSVSPGERATLSCRASQSVSGSYLAWYQQKPGQAPRLLIYATSSRASGIPARFSGSGSGTEFTLTISSLQSEDFAVYYCQQYYSGLTFGQGTKVEIK
B6: MAdCAM Antibody Table 2 Clone 65 (antibody, human IgG1, V domains shown)
VH: QVQLVQSGAEVKKPGASVKVSCKASGYTFTSYDINWVRQAPGQGLEWMGWMNPNSGNTGYAQKFQGRVTMTRDTSTSTVYMELSSLRSEDTAVYYCAKDSDYSNLLWDYWGQGTLVTVSS
VL: B1 VL with I28D, G30T, T31N, N32D, A34G, G50Q, Q55E, R93T, L94I, F96L
B7: MAdCAM Antibody Table 2 Clone 74 (antibody, human IgG1, V domains shown)
VH: QVQLVQSGAEVKKPGASVKVSCKASGYTFTGYYMHWVRQAPGQGLEWMGIINPSGGNTKYAQKFQGRVTMTRDTSTSTVYMELSSLRSEDTAVYYCTTADYYYYMDVWGKGTTVTVSS
VL: DIQMTQSPSSLSASVGDRVTITCRASQGISNYLAWYQQKPGKAPKLLIYAASSLQSGVPSRFSGSGSGTDFTLTISSLQPEDFATYYCQQYYSNADFGQGTKVEIK
B8: MAdCAM Antibody Table 2 Clone 76 (antibody, human IgG1, V domains shown)
VH: EVQLLESGGGLVQPGGSLRLSCAASGFTFDDYTMHWVRQAPGKGLEWVSDISGSGGSTYYADSVKGRFTISRDNSKNTLYLQMNSLRAEDTAVYYCAKDVVVAGTPLHFDYWGQGTLVTVSS
VL: DIQMTQSPSSLSASVGDRVTITCQASQDISNYLNWYQQKPGKAPKLLIYAASYLQSGVPSRFSGSGSGTDFTLTISSLQPEDFATYYCQQAHNYPITFGQGTRLEIK
B9: MAdCAM Antibody Table 2 Clone 79 (antibody, human IgG1, V domains shown)
VH: EVQLLESGGGLVKPGGSLRLSCAASGFTFDDYAMHWVRQAPGKGLEWVASITSSSAFIDYAASVKGRFTISRDDSKNTLYLQMNSLKTEDTAVYYCARERVDWNSYFDLWGRGTLVTVSS
VL: EIVMTQSPATLSVSPGERATLSCRASQGISNSYLAWYQQKPGQAPRLLIYGASTRATGIPARFSGSGSGTEFTLTISSLQSEDFAVYYCQQYYTYPPTFGPGTKVDIK
B10: MAdCAM Antibody Table 2 Clone 82 (antibody, human IgG1, V domains shown)
VH: QVQLVQSGAEVKKPGASVKVSCKASGYTFTRHWIHWVRQAPGQGLEWMGWINVKTGGAGYAQKFQGRVTMTRDTSTSTVYMELSSLRSEDTAVYYCARESSGWYGTDVWGQGTTVTVSS
VL: DIQMTQSPSSLSASVGDRATITCRASQSISNYLAWYQQKPGKAPKLLIYAASSLQSGVPSRFSGSGSGTDFTLTISSLQPEDFATYYCQQSNSFPLTFGGGTKVEIK
B11: MAdCAM Antibody Table 2 Clone 83 (antibody, human IgG1, V domains shown)
VH: EVQLLESGGGLVQPGGSLRLSCAASGFTFSSYWMHWVRQAPGKGLEWVAAISYDGKYKDYEDSVKGRFTISRDNSKNTLYLQMNSLRAEDTAVYYCARENKQWLASFDYWGQGTLVTVSS
VL: DIQMTQSPSSLSASVGDRVTITCQASQDISNFVNWYQQKPGKAPKLLIYAANLRSGVPSRFSGSGSGTDFTLTISSLQPEDFATYYCQQANSFPVTFGPGTKVDIK
B12: MAdCAM Antibody Table 2 Clone 84 (antibody, human IgG1, V domains shown)
VH: QVQLVQSGAEVKKPGASVKVSCKASGGTFSSSAISWVRQAPGQGLEWMGWISAYNGYTNYAQKFQGRVTMTRDTSTSTVYMELSSLRSEDTAVYYCASRVHSGGSYPDDYWGQGTLVTVSS
VL: B8 VL with Q27E, D28H, S30Y, Y53S, A91T, H92D, N93S, Y94I, R103K, L104V
B13: MAdCAM Antibody Table 1 Clone 1 (scFv)
scFv: EVQLLESGGGLVQPGGSLRLSCAASGFTFSSYGMHWVRQAPGKGLEWVAVISDDGSDKYYADSVKGRFTISRDNSKNTLYLQMNSLRAEDTAVYYCTTSKYYYYYGMDVWGQGTTVTVSSGGGGSGGGGSGGGGSGGGGSDIQMTQSPSSLSASVGDRVTITCQASQDISKSLNWYQQKPGKAPKLLIYAASSLQSGVPSRFSGSGSGTDFTLTISSLQPEDFATYYCQQGYSTPLTFGGGTKVEIK
B14: MAdCAM Antibody Table 1 Clone 2 (scFv)
scFv: QVQLVQSGAEVKKPGASVKVSCKASGYPFIGYYLHWVRQAPGQGLEWMGIINPSGGSTSYAQKFQGRVTMTRDTSTSTVYMELSSLRSEDTAVYYCAREGRLSYGMDAWGQGTLVTVSSGGGGSGGGGSGGGGSGGGGSDIQMTQSPSSLSASVGDRVTITCRASQSISSYLAWYQQKPGKAPKLLIYGASTLESGVPSRFSGSGSGTDFTLTISSLQPEDFATYYCQQTWGPPFTFGQGTKLEIK
B15: MAdCAM Antibody Table 1 Clone 4 (scFv)
scFv: QVQLVQSGAEVKKPGASVKVSCKASGGTFSSYAISWVRQAPGQGLEWMGSINPSGDTTSYAQKFQGRVTMTRDTSTSTVYMELSSLRSEDTAVYYCAKDKAQWLVGYFDYWGQGTLVTVSSGGGGSGGGGSGGGGSGGGGSDIQMTQSPSSLSASVGDRVTITCQASQDISNSLNWYQQKPGKAPKLLIYAASSLQSGVPSRFSGSGSGTDFTLTISSLQPEDFATYYCQQSYSSVITFGQGTKVEIK
B16: MAdCAM Antibody Table 1 Clone 5 (scFv)
scFv: EVQLLESGGGLVQPGGSLRLSCAASGFTFSSYWMHWVRQAPGKGLEWVSSISPGGSNIDYADSVKGRFTISRDNSKNTLYLQMNSLRAEDTAVYYCAREVQLSHYDYWGQGTLVTVSSGGGGSGGGGSGGGGSGGGGSDIQMTQSPSSLSASVGDRVTITCRASQGISNSLAWYQQKPGKAPKLLIYGASSLQSGVPSRFSGSGSGTDFTLTISSLQPEDFATYYCQQANSFPFTFGQGTKVEIK
B17: MAdCAM Antibody Table 1 Clone 6 (scFv)
scFv: EVQLLESGGGLVQPGGSLRLSCAASGFTFNNYAFHWVRQAPGKGLEWVSRINSYGTSTTYADSVKGRFTISRDNSKNTLYLQMNSLRAEDTAVYYCAREGPVAGYWYFDLWGQGTLVTVSSGGGGSGGGGSGGGGSGGGGSDIQMTQSPSSLSASVGDRVTITCRASQIIGTNLAWYQQKPGKAPKLLIYGASSLQSGVPSRFSGSGSGTDFTLTISSLQPEDFATYYCQQSYRLPFTFGQGTKVEIK
B18: MAdCAM Antibody Table 1 Clone 7 (scFv)
scFv: QVQLVQSGAEVKKPGASVKVSCKASGYTFTGYHIHWVRQAPGQGLEWMGIINPSGGSTIYAQKFQGRVTMTRDTSTSTVYMELSSLRSEDTAVYYCAKDWSSWYLGPFDYWGQGTLVTVSSGGGGSGGGGSGGGGSGGGGSDIQMTQSPSSLSASVGDRVTITCRASQNISSSLNWYQQKPGKAPKLLIYAASSLQSGVPSRFSGSGSGTDFTLTISSLQPEDFATYYCQQSYTTPYTFGQGTKVEIK
B19: MAdCAM Antibody Table 1 Clone 9 (scFv)
scFv: EVQLLESGGGLVQPGGSLRLSCAASGFTFSDYYMNWVRQAPGKGLEWVSVIGESGGSTYYADSVKGRFTISRDNSKNTLYLQMNSLRAEDTAVYYCAADPVSRWPKHGGGDYWGQGTLVTVSSGGGGSGGGGSGGGGSGGGGSDIQMTQSPSSLSASVGDRVTITCRASQGISSSLAWYQQKPGKAPKLLIYAASTLQSGVPSRFSGSGSGTDFTLTISSLQPEDFATYYCQQSYSTPWTFGQGTKVEIK
B20: MAdCAM Antibody Table 2 Clone 7 (antibody, human IgG1, V domains shown)
VH: EVQLLESGGGLVQPGGSLRLSCAASGFTFSDYQMSWVRQAPGKGLEWVAIISHADGGFKDYADSVKGRFTISRDNSKNTLYLQMNSLRAEDTAVYYCAKPYSSGWSAVYYFDYWGQGTLVTVSS
VL: DIQMTQSPSSLSASVGDRVTITCRASRGITNDLGWYQQKPGKAPKLLIYAASTLQSGVPSRFSGSGSGTDFTLTISSLQPEDFATYYCQQAYSFPWTFGQGTKVEIK
B21: MAdCAM Antibody Table 2 Clone 14 (antibody, human IgG1, V domains shown)
VH: QVQLVQSGAEVKKPGSSVKVSCKASGYTFTNYYMHWVRQAPGQGLEWMGGIIPIVDGVKYAQKFQGRVTITADESTSTAYMELSSLRSEDTAVYYCAKGQFTGNYYYGMDYWGQGTLVTVSS
VL: DIQMTQSPSSLSASVGDRVTITCQANQDISNYLNWYQQKPGKAPKLLIYRASKLEAGVPSRFSGSGSGTDFTLTISSLQPEDFATYYCQQSSEIPYSFGQGTKVEIK
B22: MAdCAM Antibody Table 2 Clone 24 (antibody, human IgG1, V domains shown)
VH: EVQLVESGGGLVKPGGSLRLSCAASGFTFSSYWMSWVRQAPGKGLEWVSRISSDGRITTYAAPVKGRFTISRDDSKNTLYLQMNSLKTEDTAVYYCARGTSYCTGGVCDIDYWGQGTLVTVSS
VL: B1 VL with I28S, T31R, A34N, G50S, S53N, R93S, L94I, F96L, Q100P, E105D

Experiments:
[1] = biological target: cyno MAdCAM protein (cyno); assay: ELISA
[2] = biological target: cyno MAdCAM protein (cyno); assay: Octet

Row | binding [1] | binding [2] | Binder
1 | binds | binds | B1
2 |  | binds | B2
3 |  | binds | B3
4 |  | binds | B4
5 |  | binds | B5
6 |  | binds | B6
7 |  | binds | B7
8 |  | binds | B8
9 |  | binds | B9
10 |  | binds | B10
11 |  | binds | B11
12 |  | binds | B12
13 |  | binds | B13
14 |  | binds | B14
15 |  | binds | B15
16 |  | binds | B16
17 |  | binds | B17
18 |  | binds | B18
19 |  | binds | B19
20 |  | no binding | B20
21 |  | no binding | B21
22 |  | no binding | B22

From US20210206856A1
